PubChem BioAssay AID720505 | Drosophila RNAi Screening Center – 2013

Screen: 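Genes needed for store-operated calcium entry in fly cells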 (primary screen)
Cell system: Drosophila S2R+ cells
Knock-down reagent: long dsRNA against Drosophila genes
Conditions: thapsigargin (2 µM) in calcium-free buffer to empty internal stores, then 2 mM calcium added back
Detection: 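Stores emptied by 2 µM thapsigargin without calcium, then 2 mM calcium re-added; fluo-4 fluorescence followed by FLIPR in 384-well plates, per-well averaged endpoint, raw; two screen passes, some wells retested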
Direction: calcium signal and retest calcium signal: higher = more calcium entry after store depletion
Hit rule: 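Knock-downs counted as hits when calcium entry dropped relative to STIM1 positive and Rho1 negative controls present on each plate; roughly 1500 genes called, with reductions of differing size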
Meaning of the calls: active = called as lowering calcium entry; inactive = not called
In all, the deposit lists about 20,000 reagents; this is a random part of those that have a named target and a result. In the full data, about 2,100 (10%) are marked active. 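Raw plate signals without normalisation; calls rest on control-based scores that were not deposited; replicate 2 separates called from uncalled poorly.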 A plus sign joins genes that one reagent is predicted to hit. No sequences are given here. Not given: the amount of reagent, the time to read-out.

Depletion of plu (plutonium) [DRSC07665] gave: calcium signal, replicate 1 = 140; calcium signal, replicate 2 = 116; inactive.
CG10324 [DRSC14230] showed calcium signal, replicate 1 = 123; calcium signal, replicate 2 = 138; inactive.
Silencing of CG32454 [DRSC11652] resulted in: calcium signal, replicate 1 = 93.3; calcium signal, replicate 2 = 116; inactive.
With knock-down of CG3062 [DRSC18572] the results were calcium signal, replicate 1 = 229; calcium signal, replicate 2 = 93.8; inactive.
For CG1620 [DRSC06603], the entry reads calcium signal, replicate 1 = 70.5; calcium signal, replicate 2 = 221; active.
Silencing of CG3792 [DRSC02725] came out at: calcium signal, replicate 1 = 182; calcium signal, replicate 2 = 113; inactive.
With knock-down of row (relative of woc) [DRSC07076], the record shows calcium signal, replicate 1 = 97.4; calcium signal, replicate 2 = 103; inactive.
row (relative of woc) [DRSC07077] gave calcium signal, replicate 1 = 104; calcium signal, replicate 2 = 154; inactive.
Against CG5909 [DRSC15914], the entry reads calcium signal, replicate 1 = 150; calcium signal, replicate 2 = 171; inactive.
Knock-down of CG10140 [DRSC09704] resulted in: calcium signal, replicate 1 = 90.4; calcium signal, replicate 2 = 116; inactive.
Against Muc68D (Mucin 68D) [DRSC10569] the deposit lists calcium signal, replicate 1 = 117; calcium signal, replicate 2 = 116; inactive.
CG18596 [DRSC15355] gave calcium signal, replicate 1 = 188; calcium signal, replicate 2 = 336; inactive.
After knock-down of CG17005 [DRSC02556], the record shows calcium signal, replicate 1 = 192; calcium signal, replicate 2 = 152; inactive.
Depletion of Tsp42Eb + CG30160 [DRSC04961] gave: calcium signal, replicate 1 = 122; calcium signal, replicate 2 = 97.7; inactive.
Tsp42Eb + CG30160 [DRSC06791] scored calcium signal, replicate 1 = 63; calcium signal, replicate 2 = 126; active.
With knock-down of Ilk (Integrin linked kinase) [DRSC11868], the screen gave calcium signal, replicate 1 = 96.3; calcium signal, replicate 2 = 124; inactive.
After knock-down of e (ebony) [DRSC16936], the screen gave calcium signal, replicate 1 = 175; calcium signal, replicate 2 = 269; inactive.
For CG31612 [DRSC03697], the values are calcium signal, replicate 1 = 59; calcium signal, replicate 2 = 98; retest calcium signal, replicate 1 = 76.6; retest calcium signal, replicate 2 = 93.1; active.
Knock-down of CG31612 [DRSC03698] gave: calcium signal, replicate 1 = 105; calcium signal, replicate 2 = 84.5; inactive.

2 successive reagents from above, for reference:
CG31612 [DRSC03697] — calcium signal, replicate 1 = 59; calcium signal, replicate 2 = 98; retest calcium signal, replicate 1 = 76.6; retest calcium signal, replicate 2 = 93.1; call = active
CG31612 [DRSC03698] — calcium signal, replicate 1 = 105; calcium signal, replicate 2 = 84.5; call = inactive
